Experimental data: publication PMC7181604, “Arabidopsis FHY3 and FAR1 integrate light and strigolactone signaling to regulate branching”
No constants are given. Whether binding was seen depends on the method and setting. Binding seen in cells or lysates may run through a third protein. Some entries that bind do so weakly or less than the wild type. Where a sequence is shown, tags or fusion partners need not be part of it.

What was measured:
Assay in all cases: co-IP; transient expression in N. benthamiana leaves; anti-HA magnetic agarose beads, 2 h at 4 °C; co-IP buffer 50 mM Tris-Cl pH 7.5, 100 mM NaCl, 0.1% Tween-20; detection with anti-MYC
[1] = biological target: T1, FHY3-HA (Arabidopsis thaliana) (UniProt Q9LIE5)
T1 sequence: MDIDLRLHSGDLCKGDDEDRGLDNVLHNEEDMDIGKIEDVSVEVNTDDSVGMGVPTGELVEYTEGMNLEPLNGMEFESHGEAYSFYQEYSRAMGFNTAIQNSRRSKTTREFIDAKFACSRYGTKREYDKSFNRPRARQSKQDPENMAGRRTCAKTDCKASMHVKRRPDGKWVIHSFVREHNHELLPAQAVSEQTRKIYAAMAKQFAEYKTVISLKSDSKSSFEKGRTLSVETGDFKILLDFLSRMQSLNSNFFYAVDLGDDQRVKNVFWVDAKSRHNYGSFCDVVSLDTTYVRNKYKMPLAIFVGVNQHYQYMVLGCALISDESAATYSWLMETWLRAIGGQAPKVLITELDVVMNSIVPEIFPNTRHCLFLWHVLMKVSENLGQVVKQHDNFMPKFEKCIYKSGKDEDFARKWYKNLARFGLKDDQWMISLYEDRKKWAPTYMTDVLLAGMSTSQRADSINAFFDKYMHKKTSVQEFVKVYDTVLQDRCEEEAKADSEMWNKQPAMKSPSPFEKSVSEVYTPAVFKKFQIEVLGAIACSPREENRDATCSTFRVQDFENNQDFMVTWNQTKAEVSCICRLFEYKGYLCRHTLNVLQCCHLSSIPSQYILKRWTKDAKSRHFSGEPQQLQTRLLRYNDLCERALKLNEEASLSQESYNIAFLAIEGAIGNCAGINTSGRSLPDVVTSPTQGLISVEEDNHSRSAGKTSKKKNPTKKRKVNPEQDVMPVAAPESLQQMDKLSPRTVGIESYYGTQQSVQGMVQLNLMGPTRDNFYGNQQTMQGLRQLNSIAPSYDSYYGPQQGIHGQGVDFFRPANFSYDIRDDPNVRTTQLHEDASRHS

[2] = biological target: T2, FAR1 (Co-IP construct) (Arabidopsis thaliana) (UniProt Q9SWG3)
T2 sequence: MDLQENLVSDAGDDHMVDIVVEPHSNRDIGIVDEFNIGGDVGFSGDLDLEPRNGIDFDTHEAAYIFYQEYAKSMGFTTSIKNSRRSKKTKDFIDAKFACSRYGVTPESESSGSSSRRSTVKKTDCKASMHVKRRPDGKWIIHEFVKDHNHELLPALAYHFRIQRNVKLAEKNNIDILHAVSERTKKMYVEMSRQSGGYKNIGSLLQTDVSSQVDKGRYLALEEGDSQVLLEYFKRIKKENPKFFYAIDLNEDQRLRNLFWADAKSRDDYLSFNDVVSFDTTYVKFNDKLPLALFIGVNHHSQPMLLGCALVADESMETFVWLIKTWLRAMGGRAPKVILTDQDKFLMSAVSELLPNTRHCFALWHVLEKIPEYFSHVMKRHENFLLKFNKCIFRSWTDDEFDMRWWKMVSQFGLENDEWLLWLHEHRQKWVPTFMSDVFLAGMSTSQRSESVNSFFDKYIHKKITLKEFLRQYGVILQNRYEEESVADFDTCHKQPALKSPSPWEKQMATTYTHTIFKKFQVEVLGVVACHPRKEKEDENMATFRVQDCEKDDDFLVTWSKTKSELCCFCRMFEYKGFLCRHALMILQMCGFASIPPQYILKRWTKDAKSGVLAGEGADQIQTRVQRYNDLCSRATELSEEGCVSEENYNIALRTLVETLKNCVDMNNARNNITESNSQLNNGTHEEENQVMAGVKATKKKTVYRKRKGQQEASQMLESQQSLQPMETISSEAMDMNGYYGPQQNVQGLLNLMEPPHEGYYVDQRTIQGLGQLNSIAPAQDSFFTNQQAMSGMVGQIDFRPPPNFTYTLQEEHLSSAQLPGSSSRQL

[3] = biological target: T3, SMXL6-HA (Arabidopsis thaliana) (UniProt Q9LML2)
T3 sequence: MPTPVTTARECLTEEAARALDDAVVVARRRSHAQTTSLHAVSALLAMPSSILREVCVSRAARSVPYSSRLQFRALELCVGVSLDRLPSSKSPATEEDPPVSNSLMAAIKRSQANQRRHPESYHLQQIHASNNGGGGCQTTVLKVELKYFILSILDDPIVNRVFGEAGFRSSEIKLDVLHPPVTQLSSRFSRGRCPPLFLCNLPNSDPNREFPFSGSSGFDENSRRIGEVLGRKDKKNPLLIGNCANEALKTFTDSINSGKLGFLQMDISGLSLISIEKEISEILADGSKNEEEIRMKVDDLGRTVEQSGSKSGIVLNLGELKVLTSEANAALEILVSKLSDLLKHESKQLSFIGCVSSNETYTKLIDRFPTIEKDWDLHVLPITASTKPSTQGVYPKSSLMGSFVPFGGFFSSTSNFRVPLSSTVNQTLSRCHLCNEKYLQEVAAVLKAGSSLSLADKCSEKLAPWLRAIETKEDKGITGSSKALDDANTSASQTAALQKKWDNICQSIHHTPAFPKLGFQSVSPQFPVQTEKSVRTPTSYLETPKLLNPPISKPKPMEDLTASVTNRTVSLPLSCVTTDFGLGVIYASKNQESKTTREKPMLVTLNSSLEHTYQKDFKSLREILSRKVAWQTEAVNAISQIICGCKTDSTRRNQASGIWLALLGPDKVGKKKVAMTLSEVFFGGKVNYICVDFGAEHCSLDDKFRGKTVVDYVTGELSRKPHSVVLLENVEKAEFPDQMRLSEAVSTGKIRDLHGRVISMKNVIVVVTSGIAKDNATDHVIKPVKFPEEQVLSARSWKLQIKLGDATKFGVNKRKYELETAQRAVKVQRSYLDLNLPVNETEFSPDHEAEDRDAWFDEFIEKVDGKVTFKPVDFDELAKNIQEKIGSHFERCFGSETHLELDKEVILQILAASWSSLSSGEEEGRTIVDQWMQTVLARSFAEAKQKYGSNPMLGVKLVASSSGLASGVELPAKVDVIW

Measured: binding

B1: SPL15-MYC (protein, UniProt Q9M2Q6 1-354)
chain: MELLMCSGQAESGGSSSTESSSLSGGLRFGQKIYFEDGSGSRSKNRVNTVRKSSTTARCQVEGCRMDLSNVKAYYSRHKVCCIHSKSSKVIVSGLHQRFCQQCSRFHQLSEFDLEKRSCRRRLACHNERRRKPQPTTALFTSHYSRIAPSLYGNPNAAMIKSVLGDPTAWSTARSVMQRPGPWQINPVRETHPHMNVLSHGSSSFTTCPEMINNNSTDSSCALSLLSNSYPIHQQQLQTPTNTWRPSSGFDSMISFSDKVTMAQPPPISTHQPPISTHQQYLSQTWEVIAGEKSNSHYMSPVSQISEPADFQISNGTTMGGFELYLHQQVLKQYMEPENTRAYDSSPQHFNWSL
binds: all assays above

B2: SPL9-MYC (protein, UniProt Q700W2 1-375)
chain: MEMGSNSGPGHGPGQAESGGSSTESSSFSGGLMFGQKIYFEDGGGGSGSSSSGGRSNRRVRGGGSGQSGQIPRCQVEGCGMDLTNAKGYYSRHRVCGVHSKTPKVTVAGIEQRFCQQCSRFHQLPEFDLEKRSCRRRLAGHNERRRKPQPASLSVLASRYGRIAPSLYENGDAGMNGSFLGNQEIGWPSSRTLDTRVMRRPVSSPSWQINPMNVFSQGSVGGGGTSFSSPEIMDTKLESYKGIGDSNCALSLLSNPHQPHDNNNNNNNNNNNNNNTWRASSGFGPMTVTMAQPPPAPSQHQYLNPPWVFKDNDNDMSPVLNLGRYTEPDNCQISSGTAMGEFELSDHHHQSRRQYMEDENTRAYDSSSHHTNWSL
binds: all assays above
